Measured values reported in patent US4018895A, “Aryloxyphenylpropylamines in treating depression” (Eli Lilly and Company, priority 1975, dated 1977).
At least one compound was matched to its structure with a doubt left.

How the values were obtained:
[1] = system: responses of monkeys; experiment: Multiple fixed-ratio fixed-interval schedule; type: in vivo; settings: dose levels of 2.5 or 5 mg./kg.
[2] = system: behavior of trained pigeons; experiment: Adjusting ratio schedule; type: in vivo
[3] = system: hypothermia induced by the injection of apomorphine; experiment: Apomorphine hypothermia antagonism test; type: in vivo, mice; settings: in words
Protocol: The apomorphine hypothermia antagonism test is carried out as follows: mice are injected with a dose of apomorphine known to reduce body temperature approximately 4° C. […] The degree of antagonism is expressed as a percent reduction (as compared with controls) of the temperature decrease produced by the injection of the apomorphine. The reserpine hypothermia reversal test is carried out as follows: groups of mice are injected with reserpine and 16.5 hours later are injected intraperitoneally with graded doses of the drug, a different dose level being given to each group of mice. Temperatures are measured at 1 hour after injection of the drug under test and again the effectiveness of the drug is expressed as a percentage decrease in the hypothermia induced by the injection of reserpine as compared with the control group. In the tablets which follow, Table 4 gives the results in the apomorphine antagonism and reserpine reversal hypothermia tests for the secondary amines of this invention. In the table, the first column gives the substituent attached to the oxygen atom at the 3 position of the propylamine chain; columns 2 to 4 the percent antagonism against apomorphine hypothermia at dose levels of 0.3, 1 and 3 mg./kg. and columns 5-7 the percent reversal of reserpine hypothermia at the same dose levels.

[4] = system: response rates of pigeons; experiment: Operant behavior, fixed-ratio, fixed interval schedule; type: in vivo; settings: in words
Source text: In manifesting their psychotropic action, the compounds of this invention also affect the behavior of animals trained in a variety of operant behavior schedules. Again, the activity of compounds of this invention in this type of test parallels that of known antidepressant drugs, particularly desmethylimipramine. […] With pigeons trained under an adjusting ratio schedule, the drugs of this invention affect behavior in the same way as does the marketed antidepressant, desmethylimipramine (DMI). […] The above results are consistent with antidepressant action.

[5] = system: hypothermia induced by the injection of reserpine; experiment: Reserpine hypothermia reversal test; type: in vivo, mice; settings: in words
Protocol: The apomorphine hypothermia antagonism test is carried out as follows: mice are injected with a dose of apomorphine known to reduce body temperature approximately 4° C. The compound under test is injected 1/2 hour before the injection of the apomorphine and the temperatures measured 1/2 hour after injection. The degree of antagonism is expressed as a percent reduction (as compared with controls) of the temperature decrease produced by the injection of the apomorphine. The reserpine hypothermia reversal test is carried out as follows: groups of mice are injected with reserpine and 16.5 hours later are injected intraperitoneally with graded doses of the drug, a different dose level being given to each group of mice. Temperatures are measured at 1 hour after injection of the drug under test and again the effectiveness of the drug is expressed as a percentage decrease in the hypothermia induced by the injection of reserpine as compared with the control group. In the tablets which follow, Table 4 gives the results in the apomorphine antagonism and reserpine reversal hypothermia tests for the secondary amines of this invention. […]

[6] = system: response of squirrel monkeys; experiment: Sidman avoidance; type: in vivo; settings: dose level of 5 mg./kg.
[7] = system: brain serotonin; experiment: Prevention of brain serotonin depletion caused by 4-chloroamphetamine; type: in vivo; settings: rats, in words
Protocol: Following this injection, the protecting drug was injected at a dose of 15 mg./kg. of rat-weight intraperitoneally and determinations of brain serotonin levels were carried out 4 hours later.

[8] = system: brain serotonin and norepinephrine; experiment: Depletion of brain monoamines by α-ethyl-4-methyl-m-tyramine; type: in vivo; settings: in words

| SMILES | Responses on multiple fixed-ratio fixed-interval schedule [1] | Dose level for increase in ratio of responses to reinforcements, relative to that required by DMI [2] | Effect on behavior (ratio of responses to reinforcements) ([2]; in words) | Activity in antagonism of apomorphine hypothermia [3] | Response rates in fixed-ratio, fixed interval schedule [4] | Activity in reversal of reserpine hypothermia [5] | Response in Sidman avoidance [6] | Prevention of depletion of brain serotonin caused by 4-chloroamphetamine [7] | Prevention of depletion of norepinephrine by α-ethyl-4-methyl-m-tyramine [8] | Prevention of depletion of serotonin in the brain by α-ethyl-4-methyl-m-tyramine [8] |
| --- | --- | --- | --- | --- | --- | --- | --- | --- | --- | --- |
| CNCCC(Oc1ccccc1OC)c1ccccc1.Cl (stereo not shown) [o-anisyl, N-methyl 3-(o-methoxyphenoxy)-3-phenylpropylamine hydrochloride] | responses were reduced | one-fourth | significant percent increase in the ratio of responses to reinforcements | activity of the same order of magnitude as the aforementioned marketed antidepressant drugs | increased response rates | extremely effective in reversing the effects of reserpine hypothermia | response of the monkeys increased |  |  |  |
| CNCCC(Oc1ccc(C(F)(F)F)cc1)c1ccccc1 (stereo not shown) [p-trifluoromethylphenyl, N-methyl 3-(p-trifluoromethylphenoxy)-3-phenylpropylamine] |  |  |  |  |  |  |  | prevented the depletion of serotonin | not the depletion of norepinephrine | prevented the depletion of serotonin in the brain |
